Measured values published in paper doi:10.1101/2023.07.15.549169.
Results are given in words; binding and its absence hold for the method and conditions named. In cells and extracts the contact can be indirect. Some binding calls cover weakened binding; strength is not graded here.

Amino acid sequences for entries named in this document (tags omitted). Residues count along the entry.
UniProt Q13485, residues 319-552: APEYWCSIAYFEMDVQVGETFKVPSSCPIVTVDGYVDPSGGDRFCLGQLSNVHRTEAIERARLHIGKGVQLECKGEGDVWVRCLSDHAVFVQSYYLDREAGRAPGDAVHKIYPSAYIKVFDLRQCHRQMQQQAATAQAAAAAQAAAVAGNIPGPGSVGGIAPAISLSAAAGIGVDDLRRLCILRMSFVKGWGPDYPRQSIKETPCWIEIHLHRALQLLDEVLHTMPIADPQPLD
UniProt P84022, residues 219-425: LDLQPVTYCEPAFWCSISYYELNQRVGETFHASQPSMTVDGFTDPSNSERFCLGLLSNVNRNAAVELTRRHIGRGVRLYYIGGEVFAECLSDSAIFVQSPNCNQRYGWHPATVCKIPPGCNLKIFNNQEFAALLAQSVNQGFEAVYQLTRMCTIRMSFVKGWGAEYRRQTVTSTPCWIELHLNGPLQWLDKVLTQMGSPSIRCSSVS

Target: GST-SMAD4-MH2 (UniProt Q13485)
Assay: pull-down

binding: binds
Substance: Venus-flag-tagged (VF) SMAD3-MH2 (from UniProt P84022 219-425) (domain or fragment)
